Results on one molecule are retold here after patent publication US20170275653A1.

The experiment has as its target GFP-YFP two-protein polypeptide scaffold (recombinant scaffold polypeptide with a B. cellulosolvens cohesin in place of the A. cellulolyticus cohesin). Briefly: fluorescence microscopy on softwood pulp, scaffold-tethered versus free fusion fluorescent proteins.

No constants are given. Whether binding was seen depends on the method and setting. Some binding calls cover weakened binding; strength is not graded here. Where a sequence is shown, tags or fusion partners need not be part of it.

B1: YFP-dockerin recombinant target polypeptide (protein)
chain: MKQHDFFKSAMPEGYVQERTIFFKDDGNYKTRAEVKFEGDTLVNRIELKGIDFKEDGNILGHKLEYNYNSHNVYITADKQKNGIKANFKIRHNIEDGGVQLADHYQQNTPIGDGPVLLPDNHYLSYQSALSKDPNEKRDHMVLLEFVTAAGITLGMDELYKLVPPKGTATVLYGDVDNDGNVDSDDYAYMRQWLIGMIADFPGGDIGLANADVDGDGNVDSDDYAYMRQWLIGMISEFPAEQKALEHHHHHH
As for B1, the binding entry is recorded as “binds”.
